Measurements from patent US12221646B2, “Method for the rapid determination of susceptibility or resistance of bacteria to antibiotics” (ABM TECHNOLOGIES, LLC, priority 2013, dated 2025).
Some results were stated once for a whole list of compounds, not compound by compound.

Test system: Pseudomonas aeruginosa
Assay: Cell enlargement after one hour incubation with antibiotic, P. aeruginosa
Type: cell-based
Conditions: carbapenems; for breakpoint concentration for cell enlargement, susceptibility: correlated to CLSI MIC≤2 μg/ml; for breakpoint concentration for cell enlargement, resistance: correlated to CLSI MIC≥8 μg/ml
Experimental: Pseudomonas aeruginosa, a common source of dangerous nosocomial infections, was also evaluated. […] Those correlated breakpoint concentrations for enlargement were 0.5 μg/ml for susceptible strains and greater than 1.0 μg/ml for resistant strains.
P. aeruginosa was evaluated for the effect of carbapenems, meropenem and imipenem, which we corroborate that induce cell enlargement in the susceptible strains of this bacterium. CLSI breakpoint concentrations of susceptibility and resistance correspond to MICs≤2-≥8 μg/ml, respectively. For cell enlargement, the new breakpoint concentrations were much lower: ≤0.2->0.5 μg/ml, for susceptibility and resistance, respectively. One hundred and thirty strains of P. aeruginosa were studied, obtaining 97 susceptible, 14 intermediate and 19 resistant to meropenem, following the standard criterion of growth affectation as indicated by MIC-CL SI. All these strains were correctly categorized when using the new breakpoints for enlargement/non-enlargement.

SMILES | breakpoint concentration for cell enlargement, susceptibility [µg/mL] | breakpoint concentration for cell enlargement, resistance [µg/mL]
C[C@@H](O)[C@H]1C(=O)N2C(C(=O)O)=C(SCCN=CN)C[C@H]12 [imipenem] | ≤ 0.2 | > 0.5
C[C@@H](O)[C@H]1C(=O)N2C(C(=O)O)=C(S[C@@H]3CN[C@H](C(=O)N(C)C)C3)[C@H](C)[C@H]12 [meropenem] | ≤ 0.2 | > 0.5
